# Source: the supplement of paper PMC7666118
# The chains behind the UniProt entries cited, without tags or fusion partners. Where a name states a change or a piece, a line headed by the entry shows the natural chain unless it says otherwise.
# UniProt Q9H0H0, whole entry: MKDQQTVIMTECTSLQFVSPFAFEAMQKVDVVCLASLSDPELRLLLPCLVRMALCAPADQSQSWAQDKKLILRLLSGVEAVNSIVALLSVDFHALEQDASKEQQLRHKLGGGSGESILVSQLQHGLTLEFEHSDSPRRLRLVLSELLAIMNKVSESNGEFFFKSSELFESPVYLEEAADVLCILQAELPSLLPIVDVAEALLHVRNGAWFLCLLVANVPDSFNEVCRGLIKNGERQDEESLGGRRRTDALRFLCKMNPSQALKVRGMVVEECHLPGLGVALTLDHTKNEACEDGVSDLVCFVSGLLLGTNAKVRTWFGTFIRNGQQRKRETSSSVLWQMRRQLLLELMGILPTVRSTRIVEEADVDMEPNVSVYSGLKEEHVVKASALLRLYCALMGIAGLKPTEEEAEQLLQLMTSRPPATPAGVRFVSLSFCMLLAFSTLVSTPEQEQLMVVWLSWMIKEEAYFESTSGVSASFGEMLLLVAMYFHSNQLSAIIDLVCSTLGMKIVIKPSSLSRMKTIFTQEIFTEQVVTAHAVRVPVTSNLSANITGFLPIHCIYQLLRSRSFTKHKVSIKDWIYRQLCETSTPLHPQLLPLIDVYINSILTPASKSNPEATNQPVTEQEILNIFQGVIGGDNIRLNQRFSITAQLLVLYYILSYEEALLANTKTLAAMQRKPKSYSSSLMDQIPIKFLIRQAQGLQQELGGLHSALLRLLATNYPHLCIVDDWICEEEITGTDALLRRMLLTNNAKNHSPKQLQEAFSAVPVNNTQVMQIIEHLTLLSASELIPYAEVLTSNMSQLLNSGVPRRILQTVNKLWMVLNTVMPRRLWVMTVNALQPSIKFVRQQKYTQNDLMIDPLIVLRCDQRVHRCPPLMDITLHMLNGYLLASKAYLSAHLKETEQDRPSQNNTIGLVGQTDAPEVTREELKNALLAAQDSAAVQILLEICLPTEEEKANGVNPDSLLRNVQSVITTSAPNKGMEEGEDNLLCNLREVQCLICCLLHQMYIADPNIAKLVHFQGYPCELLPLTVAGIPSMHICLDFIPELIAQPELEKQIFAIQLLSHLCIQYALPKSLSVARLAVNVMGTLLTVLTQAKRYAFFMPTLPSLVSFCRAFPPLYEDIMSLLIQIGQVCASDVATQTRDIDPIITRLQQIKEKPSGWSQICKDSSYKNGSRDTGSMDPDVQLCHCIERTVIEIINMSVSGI
# UniProt A0MZ66, whole entry: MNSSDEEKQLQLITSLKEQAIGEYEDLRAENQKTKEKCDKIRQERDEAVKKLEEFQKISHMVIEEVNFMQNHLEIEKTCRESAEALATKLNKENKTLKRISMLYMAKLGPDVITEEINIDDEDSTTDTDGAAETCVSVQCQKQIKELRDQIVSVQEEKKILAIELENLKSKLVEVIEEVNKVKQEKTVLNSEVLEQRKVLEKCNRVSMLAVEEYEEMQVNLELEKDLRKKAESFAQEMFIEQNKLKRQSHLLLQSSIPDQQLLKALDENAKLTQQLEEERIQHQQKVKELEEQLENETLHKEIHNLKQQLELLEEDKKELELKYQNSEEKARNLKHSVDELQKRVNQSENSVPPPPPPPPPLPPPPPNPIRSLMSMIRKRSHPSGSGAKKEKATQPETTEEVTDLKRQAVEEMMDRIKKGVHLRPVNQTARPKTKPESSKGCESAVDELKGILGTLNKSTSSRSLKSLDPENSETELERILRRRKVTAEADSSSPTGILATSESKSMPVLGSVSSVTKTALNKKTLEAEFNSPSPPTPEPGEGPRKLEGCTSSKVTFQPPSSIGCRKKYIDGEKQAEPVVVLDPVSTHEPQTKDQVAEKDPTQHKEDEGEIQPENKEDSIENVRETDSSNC
# UniProt Q9Y597: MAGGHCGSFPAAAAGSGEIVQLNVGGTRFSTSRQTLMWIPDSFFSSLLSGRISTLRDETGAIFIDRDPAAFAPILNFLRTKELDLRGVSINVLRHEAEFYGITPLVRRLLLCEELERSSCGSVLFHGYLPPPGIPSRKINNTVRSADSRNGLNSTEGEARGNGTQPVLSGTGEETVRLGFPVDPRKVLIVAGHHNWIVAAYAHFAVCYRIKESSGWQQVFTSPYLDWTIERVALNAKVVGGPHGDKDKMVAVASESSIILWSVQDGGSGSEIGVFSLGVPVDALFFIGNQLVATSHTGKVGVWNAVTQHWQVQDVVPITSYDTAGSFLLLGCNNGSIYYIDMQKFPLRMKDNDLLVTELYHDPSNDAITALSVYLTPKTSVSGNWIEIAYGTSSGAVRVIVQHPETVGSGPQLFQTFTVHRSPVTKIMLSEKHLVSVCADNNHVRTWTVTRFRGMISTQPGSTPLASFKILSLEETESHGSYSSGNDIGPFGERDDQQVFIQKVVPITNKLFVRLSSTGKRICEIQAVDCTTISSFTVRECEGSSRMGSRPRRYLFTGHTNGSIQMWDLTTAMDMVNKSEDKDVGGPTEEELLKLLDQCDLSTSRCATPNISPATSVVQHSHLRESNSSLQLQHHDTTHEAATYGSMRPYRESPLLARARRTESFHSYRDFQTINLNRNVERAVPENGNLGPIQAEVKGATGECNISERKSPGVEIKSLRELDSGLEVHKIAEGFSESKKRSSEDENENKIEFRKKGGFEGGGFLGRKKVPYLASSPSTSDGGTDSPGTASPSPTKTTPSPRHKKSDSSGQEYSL
# UniProt Q96J02: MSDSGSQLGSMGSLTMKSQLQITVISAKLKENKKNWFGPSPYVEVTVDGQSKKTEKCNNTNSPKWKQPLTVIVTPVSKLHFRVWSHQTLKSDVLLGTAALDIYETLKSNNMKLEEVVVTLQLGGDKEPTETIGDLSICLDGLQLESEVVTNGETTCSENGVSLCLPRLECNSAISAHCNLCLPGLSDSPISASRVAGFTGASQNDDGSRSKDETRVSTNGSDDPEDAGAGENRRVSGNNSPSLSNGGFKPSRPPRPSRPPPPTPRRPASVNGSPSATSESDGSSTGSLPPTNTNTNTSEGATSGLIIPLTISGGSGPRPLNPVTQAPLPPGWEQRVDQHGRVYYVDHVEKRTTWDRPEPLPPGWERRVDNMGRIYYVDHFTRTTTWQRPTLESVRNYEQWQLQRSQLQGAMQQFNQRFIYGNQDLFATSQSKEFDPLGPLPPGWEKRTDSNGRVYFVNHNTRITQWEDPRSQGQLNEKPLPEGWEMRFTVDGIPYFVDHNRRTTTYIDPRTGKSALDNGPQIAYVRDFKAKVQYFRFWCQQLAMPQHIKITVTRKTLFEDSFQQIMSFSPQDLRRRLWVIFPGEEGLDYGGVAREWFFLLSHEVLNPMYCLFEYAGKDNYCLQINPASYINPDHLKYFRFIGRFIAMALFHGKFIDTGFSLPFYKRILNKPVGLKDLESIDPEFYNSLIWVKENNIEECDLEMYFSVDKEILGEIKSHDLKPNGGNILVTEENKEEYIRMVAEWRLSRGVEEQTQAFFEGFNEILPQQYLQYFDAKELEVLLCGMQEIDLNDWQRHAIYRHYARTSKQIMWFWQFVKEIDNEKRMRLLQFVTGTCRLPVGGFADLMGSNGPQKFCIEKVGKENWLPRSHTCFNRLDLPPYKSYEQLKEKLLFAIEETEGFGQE
# UniProt Q9NVX7: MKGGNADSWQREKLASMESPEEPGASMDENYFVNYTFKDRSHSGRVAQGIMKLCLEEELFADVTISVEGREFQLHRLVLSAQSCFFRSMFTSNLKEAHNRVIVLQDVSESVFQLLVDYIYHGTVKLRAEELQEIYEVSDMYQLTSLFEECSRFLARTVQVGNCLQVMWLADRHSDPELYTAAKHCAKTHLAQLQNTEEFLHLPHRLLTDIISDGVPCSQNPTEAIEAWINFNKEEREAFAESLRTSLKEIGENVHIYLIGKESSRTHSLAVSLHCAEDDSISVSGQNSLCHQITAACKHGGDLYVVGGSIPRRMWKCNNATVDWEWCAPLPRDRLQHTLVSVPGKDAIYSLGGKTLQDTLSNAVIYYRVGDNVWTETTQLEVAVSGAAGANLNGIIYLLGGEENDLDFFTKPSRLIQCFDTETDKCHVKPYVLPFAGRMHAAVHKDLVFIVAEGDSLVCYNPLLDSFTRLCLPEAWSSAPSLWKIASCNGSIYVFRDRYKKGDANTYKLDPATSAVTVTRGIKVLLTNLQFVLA
# UniProt P11717, whole entry: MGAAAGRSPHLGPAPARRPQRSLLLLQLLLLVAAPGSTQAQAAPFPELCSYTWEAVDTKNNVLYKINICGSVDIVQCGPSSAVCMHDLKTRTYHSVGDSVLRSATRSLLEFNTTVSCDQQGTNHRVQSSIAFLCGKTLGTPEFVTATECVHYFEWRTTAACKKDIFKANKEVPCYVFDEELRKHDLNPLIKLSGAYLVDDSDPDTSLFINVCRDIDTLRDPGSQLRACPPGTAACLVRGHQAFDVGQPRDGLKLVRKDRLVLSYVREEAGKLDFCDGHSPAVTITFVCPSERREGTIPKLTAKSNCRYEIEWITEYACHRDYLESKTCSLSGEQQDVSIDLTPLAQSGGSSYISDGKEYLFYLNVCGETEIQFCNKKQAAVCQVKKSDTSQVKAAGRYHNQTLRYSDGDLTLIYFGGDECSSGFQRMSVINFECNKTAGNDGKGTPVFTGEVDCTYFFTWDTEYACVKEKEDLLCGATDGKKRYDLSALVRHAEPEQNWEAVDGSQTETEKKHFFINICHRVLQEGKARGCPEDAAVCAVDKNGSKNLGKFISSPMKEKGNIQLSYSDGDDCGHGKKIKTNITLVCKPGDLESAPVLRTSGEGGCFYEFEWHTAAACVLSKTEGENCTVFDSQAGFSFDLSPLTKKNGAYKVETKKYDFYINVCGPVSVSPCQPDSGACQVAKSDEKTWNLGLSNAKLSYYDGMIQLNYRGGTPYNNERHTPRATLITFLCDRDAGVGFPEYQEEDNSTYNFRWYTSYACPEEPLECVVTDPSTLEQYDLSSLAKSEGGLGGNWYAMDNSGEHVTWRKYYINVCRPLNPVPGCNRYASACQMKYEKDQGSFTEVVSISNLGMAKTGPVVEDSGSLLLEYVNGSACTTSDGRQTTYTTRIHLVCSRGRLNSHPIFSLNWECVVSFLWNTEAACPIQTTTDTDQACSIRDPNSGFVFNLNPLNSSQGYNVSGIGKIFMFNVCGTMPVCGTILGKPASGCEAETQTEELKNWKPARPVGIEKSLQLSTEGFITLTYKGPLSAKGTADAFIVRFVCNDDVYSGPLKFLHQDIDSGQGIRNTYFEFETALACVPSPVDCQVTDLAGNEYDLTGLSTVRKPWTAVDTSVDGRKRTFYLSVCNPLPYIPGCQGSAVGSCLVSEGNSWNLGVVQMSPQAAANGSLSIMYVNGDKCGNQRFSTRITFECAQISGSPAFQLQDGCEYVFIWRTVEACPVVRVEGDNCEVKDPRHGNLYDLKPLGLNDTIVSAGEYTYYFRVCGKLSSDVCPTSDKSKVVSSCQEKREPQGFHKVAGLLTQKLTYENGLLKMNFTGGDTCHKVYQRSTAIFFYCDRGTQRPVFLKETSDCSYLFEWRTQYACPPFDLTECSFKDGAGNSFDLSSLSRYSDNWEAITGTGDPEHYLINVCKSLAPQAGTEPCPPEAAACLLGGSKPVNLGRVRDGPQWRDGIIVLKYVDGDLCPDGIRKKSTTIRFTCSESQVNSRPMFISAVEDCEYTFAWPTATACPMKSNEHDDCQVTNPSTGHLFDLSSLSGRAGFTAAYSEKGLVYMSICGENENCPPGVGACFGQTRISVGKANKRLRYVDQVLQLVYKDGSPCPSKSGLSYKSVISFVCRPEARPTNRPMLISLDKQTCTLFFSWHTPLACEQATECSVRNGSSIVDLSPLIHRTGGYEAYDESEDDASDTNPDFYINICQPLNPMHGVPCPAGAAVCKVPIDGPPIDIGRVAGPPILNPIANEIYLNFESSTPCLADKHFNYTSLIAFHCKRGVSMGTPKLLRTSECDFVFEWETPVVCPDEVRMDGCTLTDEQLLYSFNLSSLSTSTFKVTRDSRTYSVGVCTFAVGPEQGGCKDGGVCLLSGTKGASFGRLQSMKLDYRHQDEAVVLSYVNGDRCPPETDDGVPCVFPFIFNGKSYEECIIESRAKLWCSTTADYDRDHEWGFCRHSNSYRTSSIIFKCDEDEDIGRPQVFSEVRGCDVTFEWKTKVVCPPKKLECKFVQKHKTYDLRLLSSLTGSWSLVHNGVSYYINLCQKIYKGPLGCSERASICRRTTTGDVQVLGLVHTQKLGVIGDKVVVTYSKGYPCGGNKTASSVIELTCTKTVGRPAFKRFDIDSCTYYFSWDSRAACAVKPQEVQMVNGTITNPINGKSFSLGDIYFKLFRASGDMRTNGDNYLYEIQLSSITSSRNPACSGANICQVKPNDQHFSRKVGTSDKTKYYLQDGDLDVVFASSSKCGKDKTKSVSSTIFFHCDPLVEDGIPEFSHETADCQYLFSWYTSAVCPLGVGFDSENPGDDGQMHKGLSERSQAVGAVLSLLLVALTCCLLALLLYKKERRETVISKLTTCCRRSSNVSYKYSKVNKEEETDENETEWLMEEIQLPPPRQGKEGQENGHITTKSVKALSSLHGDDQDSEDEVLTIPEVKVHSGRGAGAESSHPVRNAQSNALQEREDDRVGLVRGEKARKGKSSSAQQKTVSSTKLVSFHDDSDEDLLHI
# The other results are listed elsewhere or left out.
# Compound: COc1ccc(Cn2ccc3cc(C)c(C(=O)NO)cc32)cc1
# Assay: dose-dependent thermal stabilisation call (2D-TPP, DLPTP, 10% FDR) (binary (1 = stabilised)); higher = stabilised by the compound
# Conditions: system: HL-60 intact cells; concentration range 0.04-10 µM
# Protocol: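 2D thermal proteome profiling in intact HL-60 cells treated with BRD-3811 (0, 0.04, 0.29, 2, 10 uM) for 90 min at 37 C, then heated 3 min at one of 12 temperatures (42-63.9 C). Soluble protein was quantified by TMT10 MS. The value is the DLPTP call of the paper: dose-dependent thermal stabilisation over all temperatures at 10% FDR (F-test of a dose-response against a flat model); one experiment, one call per tested protein.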
row,Target,dose-dependent thermal stabilisation call
1,IGSF10 (UniProt Q6WRI0),inactive: 0
2,INSR (UniProt P06213),inactive: 0
3,ISOC1 (UniProt Q96CN7),inactive: 0
4,ITPK1 (UniProt Q13572),inactive: 0
5,KCTD6 (UniProt Q8NC69),inactive: 0
6,IQGAP3 (UniProt Q86VI3),inactive: 0
7,ITFG1 (UniProt Q8TB96),inactive: 0
8,KIAA1797 (UniProt Q5VW36),inactive: 0
9,KIF15 (UniProt Q9NS87),inactive: 0
10,KLHL11 (UniProt Q9NVR0),inactive: 0
11,KIAA1279 (UniProt Q96EK5),inactive: 0
12,JAG1 (UniProt P78504),inactive: 0
13,IGSF8 (UniProt Q969P0),inactive: 0
14,INTS2 (UniProt Q9H0H0),inactive: 0
15,KIAA1598 (UniProt A0MZ66),inactive: 0
16,IKZF2 (UniProt Q9UKS7),inactive: 0
17,IKBKB (UniProt O14920),inactive: 0
18,IBTK (UniProt Q9P2D0),inactive: 0
19,KCTD3 (UniProt Q9Y597),inactive: 0
20,ITCH (UniProt Q96J02),inactive: 0

# Exported as tab-separated lines: entries from further up
row	Target	dose-dependent thermal stabilisation call
3	ISOC1 (UniProt Q96CN7)	inactive: 0
5	KCTD6 (UniProt Q8NC69)	inactive: 0
9	KIF15 (UniProt Q9NS87)	inactive: 0
13	IGSF8 (UniProt Q969P0)	inactive: 0
14	INTS2 (UniProt Q9H0H0)	inactive: 0
17	IKBKB (UniProt O14920)	inactive: 0
20	ITCH (UniProt Q96J02)	inactive: 0

# Next part

row,Target,dose-dependent thermal stabilisation call
1,JMJD8 (UniProt Q96S16),inactive: 0
2,INTS7 (UniProt Q9NVH2),inactive: 0
3,KBTBD4 (UniProt Q9NVX7),inactive: 0
4,INPP4A (UniProt Q96PE3),inactive: 0
5,KIAA0196 (UniProt Q12768),inactive: 0
6,JMJD7 (UniProt P0C870),inactive: 0
7,KIAA1949 (UniProt Q6NYC8),inactive: 0
8,IQCB1 (UniProt Q15051),inactive: 0
9,IGF2R (UniProt P11717),inactive: 0
10,IFT122 (UniProt Q9HBG6),inactive: 0
11,INTS8 (UniProt Q75QN2),inactive: 0
12,IGF2BP3 (UniProt O00425),inactive: 0
13,JMJD1A (UniProt Q9Y4C1),inactive: 0
14,IGF2BP1 (UniProt Q9NZI8),inactive: 0
15,IQGAP1 (UniProt P46940),inactive: 0
16,KIAA0430 (UniProt Q9Y4F3),inactive: 0
17,HTT (UniProt P42858),inactive: 0
18,ITGAX (UniProt P20702),inactive: 0
19,IPO9 (UniProt Q96P70),inactive: 0
20,KIAA1191 (UniProt Q96A73),inactive: 0
